# From the supplement of paper PMC6143611
# Where a name gives a salt, the structure may show the parent alone. ± gives the uncertainty stated by the source. This is one part of the list. Part of the spread comes from offsets between plates or batches.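 At 6 dpf, larvae had a heat-shock-induced fluorescent stripe placed in rod outer segments; shedding distance, from stripe to outer segment tip, was measured in confocal stacks, roughly three fish per compound. Controls received 0.2% DMSO vehicle; compounds were flagged for ≥20% change versus same-week control and p < 0.001 (Dunnett test, mixed-effects models).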
# Legend:
# [1] = test system: Danio rerio larva rod photoreceptor outer segment; test: rod outer segment growth distance Dg, difference from same-week DMSO control mean; higher = more outer segment growth; settings: 20 µM; treatment time: 4 days (6-10 dpf)
# [2] = test system: Danio rerio larva rod photoreceptor outer segment; test: rod outer segment shedding distance Ds, difference from same-week DMSO control mean; higher = less outer segment shedding; settings: 20 µM; treatment time: 4 days (6-10 dpf)
SMILES,rod outer segment growth distance Dg [1] [um],rod outer segment shedding distance Ds [2] [um]
Nc1ncnc2c1ncn2[C@@H]1O[C@H](CO)[C@@H](O)[C@@H]1O [Vidarabine],0.07 ± 0.2,-0.09 ± 0.13
Nc1nc(=O)[nH]cc1F [Flucytosine],0.57 ± 0.26,0.3 ± 0.21
NC(=O)c1ncn([C@@H]2O[C@H](CO)[C@@H](O)[C@H]2O)c1O [Mizoribine],-0.78 ± 0.22,-0.56 ± 0.27
CCc1cccc(CC)c1NC(=O)N1Cc2[nH]nc(NC(=O)c3ccc(N4CCN(C)CC4)cc3)c2C1,-0.27 ± 0.17,-0.74 ± 0.17
CC(C)Cc1ccc(C(C)C(=O)O)cc1 (stereo not drawn) [Ibuprofen],0.46 ± 0.25,-0.28 ± 0.17
"c1ccc(C2CN3CCSC3=N2)cc1 (single isomer, unassigned; (-)) [(-)-Tetramisole]",0.44 ± 0.24,-0.9 ± 0.36
Cn1cnc([N+](=O)[O-])c1Sc1ncnc2[nH]cnc12 [Azathioprine],-0.55 ± 0.26,-0.14 ± 0.11
O=C(O)c1cccnc1 [Nicotinic Acid],-0.17 ± 0.23,-0.42 ± 0.17
NC[C@H]1CC[C@H](C(=O)O)CC1 [Tranexamic Acid],0.86 ± 0.22,1.59 ± 0.29
Nc1nc(Cl)nc2c1ncn2[C@H]1C[C@H](O)[C@@H](CO)O1 [Cladribine],0.81 ± 0.17,-2 ± 0.23
CC[C@H]1OC(=O)[C@H](C)[C@@H](O[C@H]2C[C@@](C)(OC)[C@@H](O)[C@H](C)O2)[C@H](C)[C@@H](O[C@@H]2O[C@H](C)C[C@H](N(C)C)[C@H]2O)[C@](C)(O)C[C@@H](C)C(=O)[C@H](C)[C@@H](O)[C@]1(C)O [Erythromycin],-0.28 ± 0.24,0.42 ± 0.2
CN(C)Cc1cccc(N=C(c2ccccc2)c2c(O)[nH]c3cc(C(N)=O)ccc23)c1,-0.89 ± 0.22,0.6 ± 0.16
COc1ccc([C@@H]2Sc3ccccc3N(CCN(C)C)C(=O)[C@@H]2OC(C)=O)cc1 [Diltiazem HCl],-0.76 ± 0.18,-0.89 ± 0.29
O=C(O)Cn1nnc(-c2cc(N3CCC(Oc4cc(F)ccc4Br)CC3)no2)n1,0.03 ± 0.3,-0.34 ± 0.21
CC1=C(C(=O)O)N2C(=O)[C@@H](NC(=O)[C@H](N)c3ccccc3)[C@H]2SC1 [Cephalexin],-0.74 ± 0.24,0.53 ± 0.19
C[C@]12CC[C@@H]3c4ccc(O)cc4CC[C@H]3[C@@H]1C[C@@H](O)[C@@H]2O [Estriol],0.39 ± 0.24,0.19 ± 0.23
COc1ccccc1OCC(O)COC(N)=O (stereo not drawn) [Methocarbamol],-0.18 ± 0.22,0 ± 0.18
OCCn1cc(-c2ccc3c(c2)CC/C3=N\O)c(-c2ccncc2)n1,-0.99 ± 0.16,-1.31 ± 0.22
Cc1cc(=O)oc2cc(O)ccc12 [4-Methylumbelliferone (4-MU)],-0.32 ± 0.21,0.93 ± 0.32
Cc1ccc(S(=O)(=O)Nc2nc3ccccc3nc2Nc2ccc3nsnc3c2)cc1,-0.97 ± 0.2,-0.68 ± 0.22
CO[C@H]1O[C@@H]2O[C@@]3(C)CC[C@H]4[C@H](C)CC[C@@H]([C@H]1C)[C@@]24OO3 [Artemether],-0.31 ± 0.19,0.45 ± 0.36
NC(=O)c1ncn([C@@H]2O[C@H](CO)[C@@H](O)[C@H]2O)c1N [Acadesine],-0.11 ± 0.21,-0.2 ± 0.14
"C[C@@H](CN1CC(=O)NC(=O)C1)N1CC(=O)NC(=O)C1 [Dexrazoxane HCl (ICRF-187, ADR-529)]",0.26 ± 0.18,-0.45 ± 0.2
Cc1cn([C@@H]2C[C@@H](O)[C@H](CO)O2)c(=O)[nH]c1=O [Telbivudine],-1.18 ± 0.24,-0.37 ± 0.18
CN1c2cc(O)c(N=NC(N)=O)cc2CC1S(=O)(=O)O (stereo not drawn) [Carbazochrome sodium sulfonate (AC-17)],-0.72 ± 0.21,-0.43 ± 0.17
Cc1ccc(NC(=O)C2(c3ccc4c(c3)OC(F)(F)O4)CC2)nc1-c1cccc(C(=O)O)c1 [VX-809 (Lumacaftor)],-0.62 ± 0.21,-0.7 ± 0.2
CC1=C(C(=O)Nc2cc3cn[nH]c3cc2F)C(c2ccc(C(F)(F)F)cc2)CC(=O)N1 (stereo not drawn),-0.68 ± 0.16,0.1 ± 0.16

# 5 compounds already listed, ordered by molecular weight, largest number first:
SMILES,rod outer segment growth distance Dg [1] [um],rod outer segment shedding distance Ds [2] [um]
O=C(O)Cn1nnc(-c2cc(N3CCC(Oc4cc(F)ccc4Br)CC3)no2)n1,0.03 ± 0.3,-0.34 ± 0.21
COc1ccc([C@@H]2Sc3ccccc3N(CCN(C)C)C(=O)[C@@H]2OC(C)=O)cc1 [Diltiazem HCl],-0.76 ± 0.18,-0.89 ± 0.29
CO[C@H]1O[C@@H]2O[C@@]3(C)CC[C@H]4[C@H](C)CC[C@@H]([C@H]1C)[C@@]24OO3 [Artemether],-0.31 ± 0.19,0.45 ± 0.36
C[C@]12CC[C@@H]3c4ccc(O)cc4CC[C@H]3[C@@H]1C[C@@H](O)[C@@H]2O [Estriol],0.39 ± 0.24,0.19 ± 0.23
NC(=O)c1ncn([C@@H]2O[C@H](CO)[C@@H](O)[C@H]2O)c1N [Acadesine],-0.11 ± 0.21,-0.2 ± 0.14

# (list continues)

SMILES,rod outer segment growth distance Dg [1] [um],rod outer segment shedding distance Ds [2] [um]
Nc1ccn([C@@H]2O[C@H](CO)[C@@H](O)[C@H]2O)c(=O)n1 [Cytidine],0.66 ± 0.25,-0.6 ± 0.26
O=S(=O)(O)CCS [Mesna],-0.54 ± 0.22,-0.08 ± 0.18
COc1c(C)c2c(c(O)c1C/C=C(\C)CCC(=O)OCCN1CCOCC1)C(=O)OC2 [Mycophenolate Mofetil],-0.73 ± 0.23,0.41 ± 0.21
CC(=O)Oc1ccccc1C(=O)O [Aspirin],0.19 ± 0.14,0.17 ± 0.15
Cc1c(OCC(F)(F)F)ccnc1C[S+]([O-])c1nc2ccccc2[nH]1 (stereo not drawn) [Lansoprazole],-0.44 ± 0.32,0.2 ± 0.22
COc1cc(/C=C/C(=O)N2CCN(CC(=O)N3CCCC3)CC2)cc(OC)c1OC [Cinepazide maleate],1.05 ± 0.15,-0.03 ± 0.13
COc1cc2c(N3CCN(C(=O)Nc4ccc(OC(C)C)cc4)CC3)ncnc2cc1OCCCN1CCCCC1 [Tandutinib (MLN518)],-0.33 ± 0.097,-0.65 ± 0.2
Nc1nc(N)c2nc(-c3cccc(O)c3)c(-c3cccc(O)c3)nc2n1,0.49 ± 0.31,-0.07 ± 0.17
NC(=O)N1c2ccccc2C=Cc2ccccc21 [Carbamazepine],0.4 ± 0.27,0.07 ± 0.13
NC(=O)c1ccc(I)c([N+](=O)[O-])c1 [Iniparib (BSI-201)],-0.87 ± 0.14,-0.46 ± 0.28
COc1ccc(-c2oc3c(CC=C(C)C)c(O[C@@H]4O[C@H](CO)[C@@H](O)[C@H](O)[C@H]4O)cc(O)c3c(=O)c2O[C@@H]2O[C@@H](C)[C@H](O)[C@@H](O)[C@H]2O)cc1 [Icariin],1.1 ± 0.43,0.42 ± 0.32
CN(C)C1CCN(C(=O)c2ccc(NC(=O)Nc3ccc(-c4nc(N5CCOCC5)nc(N5CCOCC5)n4)cc3)cc2)CC1,-1.02 ± 0.19,-0.02 ± 0.1
CC(C)N(CC[C@H](c1ccccc1)c1cc(CO)ccc1O)C(C)C,-0.04 ± 0.17,-0.52 ± 0.13
CN1CCN(CCOc2cc(OC3CCOCC3)c3c(Nc4c(Cl)ccc5c4OCO5)ncnc3c2)CC1 [Saracatinib (AZD0530)],-1.69 ± 0.23,-1.07 ± 0.28
CN1C2CCCC1CC(NC(=O)c1nn(C)c3ccccc13)C2 (stereo not drawn) [Granisetron HCl],0 ± 0.32,0.25 ± 0.21
CC(=O)OCC(=O)NCCCOc1cccc(CN2CCCCC2)c1 [Roxatidine Acetate HCl],0.46 ± 0.19,0.25 ± 0.28
COC(=O)CCSCc1ccc(-c2onc(C)c2NC(=O)OC(C)c2ccccc2Cl)cc1 (stereo not drawn),-0.93 ± 0.17,-0.14 ± 0.12
OC[C@H]1O[C@@H](Oc2ccc(O)cc2)[C@H](O)[C@@H](O)[C@@H]1O [Arbutin],0.35 ± 0.27,-0.37 ± 0.42
O=C(Nc1cccc(Nc2ncc(Br)c(NCCc3cnc[nH]3)n2)c1)N1CCCC1,0.17 ± 0.22,-0.62 ± 0.2
CC1CCN(CC[C@H]2CCCN2S(=O)(=O)c2cccc(O)c2)CC1,0.3 ± 0.16,-0.26 ± 0.12
O=C(O)CSCC(=O)NC1CCSC1=O (stereo not drawn) [Erdosteine],-0.27 ± 0.25,-0.38 ± 0.17
O=C(O)CCCN1CCC(O[C@@H](c2ccc(Cl)cc2)c2ccccn2)CC1 [Bepotastine Besilate],0.4 ± 0.15,0.05 ± 0.16
CS(=O)(=O)N1CCN(Cc2cc3nc(-c4cccc5[nH]ncc45)nc(N4CCOCC4)c3s2)CC1,-0.93 ± 0.2,-0.26 ± 0.24
NS(=O)(=O)c1ccc(NC(=O)Nc2ccc(F)cc2)cc1,-0.33 ± 0.16,-0.03 ± 0.12
CCOC(=O)[C@H](CCc1ccccc1)N[C@@H](C)C(=O)N1Cc2ccccc2C[C@H]1C(=O)O [Quinapril HCl],0.94 ± 0.3,-0.61 ± 0.17
NCC(=O)CCC(=O)O [5-Aminolevulinic acid HCl],-0.84 ± 0.23,-0.27 ± 0.16
O=C(O)C1(C(=O)O)CCC1.[NH2-].[NH2-].[Pt+2] [Carboplatin],1.12 ± 0.21,0.05 ± 0.27
